Measurements reported in PMC3206494, “Discovery of potent, novel, non-toxic anti-malarial compounds via quantum modelling, virtual screening and in vitro experimental validation” (Malaria Journal, 2011).

system: mammalian cytotoxicity; test: Toxicity assay, colorimetric MTT assay (mammalian cytotoxicity); type: cell-based; conditions: ratio of mammalian cytotoxicity and anti-malarial activity
Description: Toxicity was determined by using the colorimetric 3-(4,5-dimethylthiazol-2-yl)-2,5-diphenyltetrazoliumbromide (MTT) assay. The toxicity assays were performed at the Swiss Tropical Institute, Basel, Switzerland.

Structure (SMILES)	Therapeutic Index
Cc1cccc[n+]1CCCCCCCCCC[n+]1ccccc1C [GR-M009]	> 6923
CCN(CC)CCCC(C)Nc1ccnc2cc(Cl)ccc12 (centres unmarked) [chloroquine, reference compound]	~2
CC(C)(C)CC(C)(C)Cc1ccc(OCCOCC[N+](C)(C)Cc2ccccc2)cc1 [GR-M011]	38
Cc1ccc(Cn2cc(CCC(=O)NCCCN3CC(C)CC(C)C3)c3ccccc32)cc1 (centres unmarked) [GR-M007]	23
CC1=C(CCC(C)N(C)Cc2ccc(OCCCN3CCCC3)cc2)C(C)(C)CCC1 (centres unmarked) [GR-M010]	28
